PubChem BioAssay AID1259254, NCATS | 2017

Purpose: 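Finding genes that stop cells copying their DNA twice in one cycle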 (primary screen)
Cells: human HCT116 colorectal cancer cells
Reagent: single siRNA against human genes
Time to read-out: 3 days
Detection: 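Nuclei stained with Hoechst and imaged; cell-cycle phase assigned by DNA content; G2 share scaled per plate, non-targeting siRNA 0%, GMNN siRNA 100%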
Direction: G2 robust z-score and G2 cells, % of GMNN control: higher = more G2 cells, more excess DNA replication; raw share of cells in G2: higher = larger share of cells with G2 DNA content
Active means: 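Active siRNAs have a G2 robust z of 5 or more median absolute deviations over the median, which in these data means about 38% or higher of GMNN control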
The whole screen tested about 59,000 reagents; this is a part drawn at random. Of all reagents, about 1,550 (2.6%) are marked active. 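G2 share is only a proxy for re-replication; each gene was hit by three separate siRNAs, and active genes were retested.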 Raw values vary from plate to plate and are shown uncorrected. Reagents against one gene are numbered here. Not stated in the record: the amount of reagent.

no.	target	reagent	G2 robust z-score	G2 cells, % of GMNN control	raw share of cells in G2 (%)	activity call
1	LRRC4C	1	-0.818	-2.79	3.36	inactive
2	LRRC4C	2	3	24.1	15.6	inactive
3	LRRC4C	3	-0.589	-1.18	3.8	inactive
4	CBX8	1	0.0564	3.36	7.04	inactive
5	CBX8	2	-0.855	-3.05	3.27	inactive
6	CBX8	3	0.82	8.74	7.4	inactive
7	PSMC2	1	1.72	15	9.15	inactive
8	PSMC2	2	3.79	29.7	15.2	inactive
9	PSMC2	3	1.37	12.6	9.5	inactive
10	SIM1	1	-1.05	-4.4	4.2	inactive
11	SIM1	2	-0.503	-0.571	4.35	inactive
12	SIM1	3	-0.234	1.32	4.4	inactive
13	SIGLEC15	1	2.06	17.4	8.56	inactive
14	SIGLEC15	2	-0.13	2.05	4.39	inactive
15	SIGLEC15	3	0.0445	3.28	4.31	inactive
16	CDK5R1	1	8.33	61.6	26.9	active
17	CDK5R1	2	1.99	17	12.3	inactive
18	CDK5R1	3	1.11	10.8	8.58	inactive
19	SLC25A41	1	1.64	14.5	10.6	inactive
20	SLC25A41	2	-0.722	-2.11	3.51	inactive
21	SLC25A41	3	4.99	38.1	22.4	inactive
22	GMCL1	1	-0.694	-1.91	3.75	inactive
23	GMCL1	2	0.178	4.22	6.5	inactive
24	GMCL1	3	0.644	7.5	4.68	inactive
25	OR13C8	1	1.45	13.2	9.14	inactive
26	OR13C8	2	-0.549	-0.894	2.82	inactive
27	OR13C8	3	-0.361	0.426	2.73	inactive
28	S100A7A	1	0.929	9.51	6.36	inactive
29	S100A7A	2	-0.231	1.34	3.63	inactive
30	S100A7A	3	1.05	10.4	7.16	inactive
31	BRINP1	1	3.44	27.1	18	inactive
32	BRINP1	2	2.26	18.8	11	inactive
33	BRINP1	3	-0.369	0.374	3.67	inactive
34	RBMXL2	1	-1	-4.09	4.31	inactive
35	RBMXL2	2	-0.63	-1.46	3.7	inactive
36	RBMXL2	3	3.8	29.7	13.7	inactive
37	LINC03034	1	-0.811	-2.74	2.64	inactive
38	LINC03034	2	1.16	11.2	7.36	inactive
39	LINC03034	3	-1.01	-4.17	2	inactive
40	PROZ	1	2.17	18.3	11.9	inactive
41	PROZ	2	-1.33	-6.36	2.66	inactive
42	PROZ	3	-0.121	2.11	4.7	inactive
43	LILRA3	1	-0.197	1.58	6.38	inactive
44	LILRA3	2	-0.528	-0.748	6.18	inactive
45	LILRA3	3	1.69	14.9	8.65	inactive
46	BBC3	1	5.08	38.7	18.6	active
47	BBC3	2	0.806	8.64	7.81	inactive
48	BBC3	3	9.29	68.3	24.8	active
49	H2AZ2P1	1	-0.958	-3.78	2.48	inactive
50	H2AZ2P1	2	3.85	30.1	16.5	inactive
51	H2AZ2P1	3	2.15	18.1	12.4	inactive
52	SLC22A7	1	-0.785	-2.56	4.58	inactive
53	SLC22A7	2	-0.574	-1.07	3.49	inactive
54	SLC22A7	3	-0.238	1.29	6.99	inactive
55	CARD18	1	-1.45	-7.25	1.78	inactive
56	CARD18	2	0.477	6.32	6.52	inactive
57	CARD18	3	-0.0349	2.72	6.77	inactive
58	GFPT1	1	-0.762	-2.4	4.37	inactive
59	GFPT1	2	-0.732	-2.18	4.43	inactive
60	GFPT1	3	0.0442	3.28	4.83	inactive
61	OR2A1	1	0.353	5.45	5.2	inactive
62	OR2A1	2	-0.562	-0.986	2.59	inactive
63	OR2A1	3	1.29	12.1	8.84	inactive
64	ZNF853	1	-0.352	0.49	3.78	inactive
65	ZNF853	2	3.87	30.2	17	inactive
66	ZNF853	3	-0.591	-1.19	2.8	inactive
67	TRPC4AP	1	2.02	17.2	14	inactive
68	TRPC4AP	2	5.68	42.9	18.4	active
69	TRPC4AP	3	-1.11	-4.86	2.4	inactive

Sorted by “raw share of cells in G2 (%)” (descending): 6 of the entries above.
target	reagent	G2 robust z-score	G2 cells, % of GMNN control	raw share of cells in G2 (%)	activity call
SLC25A41	3	4.99	38.1	22.4	inactive
CDK5R1	2	1.99	17	12.3	inactive
SLC25A41	1	1.64	14.5	10.6	inactive
CDK5R1	3	1.11	10.8	8.58	inactive
GMCL1	1	-0.694	-1.91	3.75	inactive
SLC25A41	2	-0.722	-2.11	3.51	inactive
